According to PubChem BioAssay AID1347426 (Functional Genomics Laboratory (NCATS/FGL), 2020):
The whole screen tested about 31,000 sequences, of which about 1,400 (4.5%) were called active.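 The calls were made as follows: active = median seed-adjusted z-score above 1 or below -1; inactive = the rest.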 The list shows a part of the results.

Experiment: Novel Modifiers of Survival Motor Neuron (SMN) Protein: Gene Identification via Genome-wide siRNA Screen;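 also: luminescence tracks full-length SMN protein made from the SMN2 reporter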
Settings: HEK293T SMN2-luciferase reporter, siRNA knockdown, 72 h; actives lie on both sides
Method in brief: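 Steps: spot 1 pmol siRNA, add Lipofectamine RNAiMax in serum-free DMEM, seed HEK293T SMN2–luciferase reporter cells; incubate 72 h at 37 °C; add ONE-Glo; normalize luminescence to control siRNA, log10, MAD. Candidates: |MAD| > 1.0.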

Sequence | median seed-adjusted z-score
GAAACAUCAUUUUUGCGAATT against THBS4 | inactive: -0.28
GGGCGGUACUUUACAACUATT against KCTD9 | active: 1.31
GAAAAUUUAUGGAUCUUGUTT against E2F6 | inactive: -0.299
AGAUGUCCUACACCACAUATT against REXO1 | inactive: -0.748
CCAUGGUGAACGACAGAAATT against SPRED2 | inactive: -0.749
GGUCGACUGUUUCUACACUTT against MAP2K3 | inactive: 0.365
GCCCGUCAUUGAAAUGAGATT against BTN2A3 | inactive: -0.483
CACCGUAUCCAGCACAUUATT against EYA1 | inactive: 0.0838
CACCUGAAAUAUCACAAUUTT against SLC15A2 | inactive: 0.322
GGGCGGUAUUGAUCCACUATT against RCOR2 | inactive: -0.129
ACAAUUAUUGGAAAGAGAATT against SPRYD5 | inactive: 0.151
CUACCAGCCCUACACCAUUTT against CCL1 | inactive: 0.537
CGAAGAGGCUAUCAAAGGATT against ELAVL3 | inactive: -0.151
CCAUUAAGGUGGAGUGUUATT against CPNE3 | inactive: 0.109
UAAGAACUCUUUUCGAGGATT against EXOSC1 | inactive: 0.0508
CGCCUUCCGCGACAAGUUUTT against CHST8 | inactive: 0.341
CCAUGACGAUGGGACCUAUTT against NELL1 | inactive: -0.466
GAAUGGAGGUCAACUAUAUTT against UBE2E2 | active: -1.77
GGCUAUACGGUGAAAAUCATT against CACYBP | inactive: -0.33
CAUCGGAACUGCAAUGUUATT against METTL5 | inactive: 0.221
CCGUCUUCAGAAAAGCGAATT against CLASP1 | inactive: 0.0472
AGGAGAAGUUUGCACUGGATT against OSBPL5 | inactive: 0.638

As a working copy, part of the list above.
Sequence | median seed-adjusted z-score
UAAGAACUCUUUUCGAGGATT against EXOSC1 | inactive: 0.0508
CGCCUUCCGCGACAAGUUUTT against CHST8 | inactive: 0.341
CCAUGACGAUGGGACCUAUTT against NELL1 | inactive: -0.466
GAAUGGAGGUCAACUAUAUTT against UBE2E2 | active: -1.77

Part of the list above, set out differently.
Sequence	median seed-adjusted z-score
CCGUCUUCAGAAAAGCGAATT against CLASP1	inactive: 0.0472
AGGAGAAGUUUGCACUGGATT against OSBPL5	inactive: 0.638

Following part:

Sequence | median seed-adjusted z-score
GCAAGCCUUUCAAAUGGUATT against GALNT2 | inactive: 0.0798
CACUGUUUAUGUAAAAUCATT against SPDYA | inactive: 0.351
GCCGUGUGACAAUCGAAUATT against ALDH9A1 | inactive: -0.297
GAACUUACGGUAACAGGCATT against PYCRL | inactive: 0.498
GACUGGGACUUCUCGAUGATT against BDH2 | inactive: -0.242
GAAUCCAGUUAUCAUCAAATT against ST3GAL5 | inactive: 0.11
GGUCAUUCACUAGUAUCAATT against MAP3K2 | inactive: 0
ACCACAAGUUCAUCCGGAATT against TRIM50 | inactive: 0
GCAUGAUUGCGCUCAUGGATT against CAPN3 | inactive: 0.0426
AGGAAGAGUUUAACAUUGATT against ATP6V1E2 | inactive: -0.162
CAUUGGAAUUCUUUCAAUATT against APTX | inactive: -0.131
GCAGAUCGAUUUCUCAACATT against ABCA1 | active: -1.27
CCAAGGUACUAACAUGGGATT against AP3M1 | inactive: 0
CUCUUUACCCACAACUUAATT against ZNF540 | inactive: -0.439
CUACGACAUUUGCUUCAGATT against TUBB2C | inactive: 0
GAGGGUCUCUGGUACCUGATT against PRSS8 | inactive: -0.275
GACCUACUGUCAAGAUACATT against SIGLEC12 | inactive: 0.226
CAAACUUCCGUAUCACAGUTT against GPD1 | inactive: 0.558
UGAGCACUGUGAAAUCCAATT against KCNE2 | inactive: -0.666
GGCCUAGGCUCUCUGUAGATT against TIMM10 | inactive: 0.0738
GGAACACGCUGUUCAUUGATT against SERPINA12 | inactive: -0.382
GAUCAAUCCAGGGACUAUATT against CHD9 | inactive: 0.218

Sequence | median seed-adjusted z-score
GGUGUCCUCCAUCUACUUATT against MRGPRF | inactive: -0.654
AUAUGUACCUUACUCGAGATT against HOXA10 | inactive: -0.112
CCACUACCCUGAGAACUUUTT against TOP3B | active: -1.11
GCCCAGCAGUAUCUCCUAUTT against CPA6 | inactive: 0.343
UGCUGGUGUUUAAACCCAUTT against C5AR1 | inactive: 0.366
ACUAAGAUUUAUUACUGUATT against DDX11 | inactive: 0
GACUCCAAUUCAUAUAUCATT against CDKN3 | inactive: -0.03
GGAUCGUCUUCAACGUAUUTT against HCN3 | inactive: 0.301
CAGUAUAUGUCAAACCUCUTT against GJB4 | inactive: 0.131
CUACUACGGAGACUACCAATT against LHX5 | inactive: -0.414
GUAGGAAAGUUUAUCCAGUTT against GPAM | inactive: 0.237
ACAGCGACGUGUUCUCUGATT against PKN1 | inactive: -0.753
GACAAAUUGUUGAAGAGGATT against ZNF133 | inactive: -0.199
GCUUCAUCAAGCUACCCAATT against FOXF1 | inactive: -0.148
UCAGUUCCCUGAAAGACUATT against APOC3 | inactive: 0.185
GGAUUCUUACCGGAUAUUATT against DDB2 | inactive: 0
GAUGAAAGGUUACAAUCCATT against EIF2B5 | inactive: -0.432
CAAACUAGAUUGUAAUUCATT against PCDHGA12 | inactive: 0.561
GGAUCCAAGAGAAAUGCGATT against GPR115 | inactive: -0.189
GCUCAAUGCUUCGAAUUCATT against HDAC9 | inactive: -0.135
CACCUGUGCUAUUACCACATT against SEC63 | inactive: -0.159
GCUGCACACCGUAACCACATT against OPN5 | inactive: 0.483

Sequence | median seed-adjusted z-score
GUGUCGAAGUGGAAACUGATT against EXOSC7 | inactive: 0.0148
GGGAAGGCAAUAAAACUUATT against TAAR9 | active: -1.07
GCACUUACAGGACCAUGUATT against EGFL8 | inactive: 0.365
CGAUAACAACGACAUUGCATT against COL6A1 | inactive: 0.509
CACUGUCCUUGGGUGAAUATT against ZDHHC20 | inactive: -0.936
GAUGAUCAGUAGAAUUGAATT against CSNK1A1 | inactive: -0.608
CAACCUGAGUUUUAAAAUATT against TUBB2B | inactive: 0.935
AGUCCCUCUUCGUCUCUAATT against ALDOA | inactive: -0.258
CCAUCACCAGCUUUAUUGATT against GDF5 | inactive: -0.0507
GCAUGUGACCCAGAGGUUATT against ACIN1 | inactive: -0.674
UACAUGAUAUGAUCAUUAATT against ARL4A | inactive: -0.572
CAUCUGCACUGGGCAAGAATT against NOX5 | inactive: 0.178
GCUGCUUGUGGAUUCGCUATT against TLN2 | inactive: -0.0106
AGAAGACAGAGGGUUCGAATT against OSCAR | inactive: 0.114
UCAAGUCCCUGGUCCUGCATT against HIC2 | inactive: -0.283
UCACUUUCCCUGUAAAUAUTT against CD84 | inactive: 0.629
GGAUAGCAAUAGAUUGCGATT against PHF20L1 | inactive: 0
GGAUCGAGGACAUGAGGAATT against IKBKG | inactive: -0.615
CAUGGAACAUUGUGAGAAATT against RPS6KB1 | active: 1.4
GCAUAAAACUGAAGGUGGATT against PTPRN | inactive: -0.272
GGACUUGACAUGACUGGAATT against RORB | inactive: 0.044
CCCUGAUUGCUCUAAAGAATT against IGHMBP2 | inactive: -0.271

Sequence | median seed-adjusted z-score
GCGAAACGGAGGAACGAAATT against DDX31 | inactive: 0.0144
GCAUUUCGCGGAGUACGCATT against MPST | inactive: -0.181
CAACCUAAAGAGACCCUAATT against PRSS33 | inactive: -0.588
AUACCAAGGUGCAAUUAAATT against HOXA13 | inactive: -0.136
CCCAAUCCUUUAUGUUUUUTT against CCRL1 | inactive: -0.347
GCAUUUUGCAUAUCCACCATT against TRMT12 | inactive: 0.352
GAACUUAUCAUAUCAAGUUTT against CTNND1 | inactive: 0.38
GGAAAUACCACGAUGCAAATT against CTCFL | inactive: -0.362
GCCUACAACUUUUCAACCATT against SEC24A | inactive: 0.038
GUCAUAGCCUGGAUGGAAATT against CPXM2 | inactive: 0
GGUUGCUAUAUGUUCCGAATT against MLL | inactive: 0.227
CUACGUCGCCUCUACCAAATT against CTNNA1 | inactive: -0.0588
AACAGUAUCUUUCAGAAUATT against TMPRSS5 | active: 1.25
AGUCUGCCCUGACCGUGAATT against RASL12 | inactive: -0.256
GUCACUUCAUGGGCAAGAATT against NMB | inactive: 0.746
GAGUCUAACUAGUUAUGAUTT against MCOLN3 | inactive: -0.09
CCAGUUGCAAUUAAGUAUATT against AGPAT9 | inactive: 0
CGGACUCUUCAGUAGUUAATT against ANGPTL5 | inactive: 0
AGAUAUCUUUCAGAUCCAATT against SYNPR | inactive: 0.257
GACAAGUAGUAUUAUCGGATT against TXNDC3 | inactive: -0.649
